# Source: PMC11374953, “Heteroaryl derivatives of suvorexant as OX1R selective PET ligand candidates: Cu-mediated ^18F-fluorination of boroxines, in vitro and initial in vivo evaluation” (EJNMMI Research, 2024)
# Experiment: Dynamic small animal PET imaging of the rat brain
# Assay type: in vivo
# Settings: any time after tracer injection
# Protocol: Small animal PET experiments in rats were performed to allow for an initial comparison in single animals that were injected with [^18F]1c or [^18F[1f alone, after preinjection of suvorexant (1 mg/kg), and after pretreatment with cyclosporine A (25 mg/kg) (Fig. 3). […] Therefore, to elucidate the P-gp-mediated transport of the compounds, specific experiments were performed.
# Fig. 3 Time-activity curves and horizontal PET slices of the rat brain after injection of [^18F]1c (A, C) and [^18F]1f (B, D). Single animals were injected with the tracer alone (“control”, blue) compared to animals preinjected with suvorexant (1 mg/kg, 15 min prior to tracer injection, each n = 1; “blocking”, red) or cyclosporine A (25 mg/kg, 30 min prior to tracer injection, each n = 1; green)
# Ten- to 13-week-old female CD Sprague–Dawley rats (250–300 g, Charles River) were housed with free access to standard rat chow (Purina) and water at all times. Dynamic small animal PET scans were performed on an Inveon™ microPET scanner (Siemens Healthineers AG, Erlangen, Germany). All rats were continuously anesthetized using isoflurane (2–3% in oxygen, 0.8 L/min) and placed on a heating pad (37 °C) during the PET scan. […] The data obtained were finally converted into values expressed as percent of injected dose per gram (%ID/g).
smiles,measurement,value
"CC[C@H](C)[C@H]1CN(c2nc3ccc([18F])cc3s2)CCCN1C(=O)c1cc(C)ccc1-n1nccn1 [[^18F]1f, {(S)-2-[(S)-sec-butyl]-4-(6-[^18F]fluorobenzo[d]thiazol-2-yl)-1,4-diazepan-1-yl}[5-methyl-2-(2H-1,2,3-triazol-2-yl)phenyl]methanone]",specific binding in the rat brain by PET,No specific binding
"Cc1ccc(-n2nccn2)c(C(=O)N2CCCN(c3nc4ccc([18F])cc4s3)CC2)c1 [[^18F]1c, [4-(6-[^18F]fluorobenzo[d]thiazol-2-yl)-1,4-diazepan-1-yl][5-methyl-2-(2H-1,2,3-triazol-2-yl)phenyl]methanone]",specific binding in the rat brain by PET,No specific binding
